The results in this text go back to publication PMC11269669.

The chains behind the UniProt entries cited, without tags or fusion partners. Where a name states a change or a piece, a line headed by the entry shows the natural chain unless it says otherwise.
UniProt Q14498: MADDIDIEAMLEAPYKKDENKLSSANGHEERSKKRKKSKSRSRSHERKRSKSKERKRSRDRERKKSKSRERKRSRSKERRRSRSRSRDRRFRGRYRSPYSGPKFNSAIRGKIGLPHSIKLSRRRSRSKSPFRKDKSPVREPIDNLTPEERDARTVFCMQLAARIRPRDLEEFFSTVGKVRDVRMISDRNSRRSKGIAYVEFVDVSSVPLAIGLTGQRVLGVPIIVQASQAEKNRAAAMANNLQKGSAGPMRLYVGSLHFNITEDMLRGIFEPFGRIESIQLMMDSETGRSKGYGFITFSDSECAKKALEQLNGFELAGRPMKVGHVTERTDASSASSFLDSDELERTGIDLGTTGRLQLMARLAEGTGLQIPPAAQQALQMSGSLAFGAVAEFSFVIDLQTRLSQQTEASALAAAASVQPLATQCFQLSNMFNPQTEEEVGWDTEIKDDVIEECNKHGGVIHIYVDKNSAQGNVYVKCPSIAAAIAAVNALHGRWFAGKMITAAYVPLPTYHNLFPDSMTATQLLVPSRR

No constants are given. Whether binding was seen depends on the method and setting. In cells and extracts the contact can be indirect. Binding can be weak; no strength is given.

The assay has as its target His-RBM39-ΔRRM1 (His-tagged RBM39 with the RRM1 domain deleted) (UniProt Q14498). As to the kind of experiment: co-IP; His-vector, His-full-length and domain-deleted RBM39 plasmids transfected into HCT116 cells; lysates immunoprecipitated with His antibody, western blot.

B1: endogenous MORC2 (Microrchidia family CW-type zinc finger 2) (protein, UniProt Q9Y6X9 1-1032)
chain: MAFTNYSSLNRAQLTFEYLHTNSTTHEFLFGALAELVDNARDADATRIDIYAERREDLRGGFMLCFLDDGAGMDPSDAASVIQFGKSAKRTPESTQIGQYGNGLKSGSMRIGKDFILFTKKEDTMTCLFLSRTFHEEEGIDEVIVPLPTWNARTREPVTDNVEKFAIETELIYKYSPFRTEEEVMTQFMKIPGDSGTLVIIFNLKLMDNGEPELDIISNPRDIQMAETSPEGTKPERRSFRAYAAVLYIDPRMRIFIHGHKVQTKRLSCCLYKPRMYKYTSSRFKTRAEQEVKKAEHVARIAEEKAREAESKARTLEVRLGGDLTRDSRVMLRQVQNRAITLRREADVKKRIKEAKQRALKEPKELNFVFGVNIEHRDLDGMFIYNCSRLIKMYEKVGPQLEGGMACGGVVGVVDVPYLVLEPTHNKQDFADAKEYRHLLRAMGEHLAQYWKDIAIAQRGIIKFWDEFGYLSANWNQPPSSELRYKRRRAMEIPTTIQCDLCLKWRTLPFQLSSVEKDYPDTWVCSMNPDPEQDRCEASEQKQKVPLGTFRKDMKTQEEKQKQLTEKIRQQQEKLEALQKTTPIRSQADLKKLPLEVTTRPSTEEPVRRPQRPRSPPLPAVIRNAPSRPPSLPTPRPASQPRKAPVISSTPKLPALAAREEASTSRLLQPPEAPRKPANTLVKTASRPAPLVQQLSPSLLPNSKSPREVPSPKVIKTPVVKKTESPIKLSPATPSRKRSVAVSDEEEVEEEAERRKERCKRGRFVVKEEKKDSNELSDSAGEEDSADLKRAQKDKGLHVEVRVNREWYTGRVTAVEVGKHVVRWKVKFDYVPTDTTPRDRWVEKGSEDVRLMKPPSPEHQSLDTQQEGGEEEVGPVAQQAIAVAEPSTSECLRIEPDTTALSTNHETIDLLVQILRNCLRYFLPPSFPISKKQLSAMNSDELISFPLKEYFKQYEVGLQNLCNSYQSRADSRAKASEESLRTSERKLRETEEKLQKLRTNIVALLQKVQEDIDINTDDELDAYIEDLITKGD
On to B1, for which the binding entry is “binds”.
